# Results: patent publication US12703730B2 (HANMI PHARM. CO., LTD., priority 2017, dated 2026)
# Assay: peptide synthesis
# Details: conjugation step, HPLC reverse analysis
substance,measurement,value
CA-GLP-2 RC-PEG(10K)-immunoglobulin Fc,final HPLC purity,95.6%
